We go through 37 compounds from PubChem BioAssay AID2685 (National Center for Advancing Translational Sciences (NCATS), 2010).

This is one part of the list. Further columns of the screen follow, without active or inactive calls. Compounds called inactive in the main read-out are mostly missing here. Potencies come from curve fits of mixed quality, noted in brackets.

The nature of the assay: qHTS Assay for Lipid Storage Modulators in Drosophila S3 Cells.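 On cell number change: cells counted by Cell Tracker Red CMTPX staining in the red channel.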 The note with it: BODIPY lipid droplet fluorescence, 18-24 h; for cell number change: measured here: cell count max response, cells fed with added oleic acid. In outline:
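Laser-scanning cytometry quantifies lipid droplet accumulation (500–530 nm total intensity; droplet/cell object ratio) in oleic acid-fed (400 uM added) Drosophila S3 cells treated with a concentration series. 20 uM Triacsin C defined 100% inhibition.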
For orientation: In qHTS, concentration-response curves come from the screen itself.

The mark [1] stands for this setting: measured here: lipid fluorescence (Fed channel) AC50, cells fed with added oleic acid.
[2] abbreviates: measured here: cell number channel AC50, cells fed with added oleic acid.

For orientation: AC50 means the concentration at which the activity in the assay is half-maximal. For the compound `CN1C(=O)C(=O)N(CC(=O)Nc2ccccc2OC(F)F)C1=O`, the cell number change stood at 4.66%. In addition, the AC50 under setting [1] is 0.731 µM [falling, single point].
Regarding `O=C(COc1ccc([N+](=O)[O-])cc1)NCc1cccnc1`, the cell number change came out at 10.1%. Also, the AC50 under setting [1] is 11.6 µM [rising, partial curve].
In the case of `COc1ccc(-c2csc(NC(=O)C3CCCO3)n2)cc1` (stereo unspecified), the cell number change worked out at 12%. For the same compound, the concentration at half-maximal activity (AC50) under setting [1] was 3.66 µM [rising, partial curve].
For the compound `CCC1CCCCN1CCCNC(=O)CSc1nc2nc(C)c(Cc3ccccc3Cl)c(C)n2n1` (stereo unspecified), under setting [2], the concentration at half-maximal activity (AC50) is 0.058 µM [falling, full curve, poor fit].
As to `Cc1ccn2c(NC3CCCCC3)c(-c3cccc(-c4cccc(Cl)c4)c3)nc2c1`, the cell number change is -62.6%. Also, the AC50 under setting [2] is 14.6 µM [falling, partial curve]. Besides, the AC50 under setting [1] was 5.8 µM [falling, single point].
Take `O=C(O)c1ccc(NC(=O)c2cn(-c3ccccc3)nc2-c2ccc(F)cc2)cc1`: the cell number change turned out to be 14.5%. In addition, the half-maximal activity concentration (AC50) under setting [2] is 6.51 µM [falling, single point].
Regarding `CC(C)CN1C(=O)c2ccc(NC(=O)c3ccco3)cc2C1=O`, the cell number change worked out at 0.955%. For the same compound, the AC50 under setting [1] was 29.1 µM [falling, single point].
Take `CC(=O)Nc1ccc2c(c1)N(C(=O)CN(C)C)c1ccccc1CC2`: the cell number change was -52.6%. Under setting [2], the AC50 was 10.3 µM [falling, partial curve]. Further, under setting [1], the AC50 is 13 µM [falling, partial curve].
Regarding `CC1CCCCC1NC(=O)c1ccc(N2CCCC2=O)cc1` (stereo unspecified), the cell number change came out at 101%. Further, the AC50 under setting [2] is 18.4 µM [rising, single point].
Turning to `COc1ccc(N2CCN(C(=O)CNC(=O)c3cccs3)CC2)cc1`, the cell number change is 4.42%.
Still for that read-out and setting: the value for `Cc1nn(CC(=O)NCCCc2ccccc2)c(=O)c2cc3occc3n12` was -14.5%.
On to `O=C(Nc1cccc(C(=O)Nc2ccc(F)cc2F)c1)c1ccccc1`, for which the cell number change was 9.53%. In addition, the AC50 under setting [1] is 0.291 µM [rising, partial curve, poor fit].
With `Cc1ccc(S(=O)(=O)N2CCOC2CNC(=O)C(=O)NCCc2ccccc2)cc1` (stereo unspecified), the cell number change came to 18%. Moreover, under setting [1], the AC50 was 1.64 µM [rising, full curve].
As for `Cc1ccccc1-n1c(SCC(=O)Nc2c(C)cccc2C)nc(O)cc1=O`, the cell number change was -8.73%. Further, under setting [1], the AC50 was 23.1 µM [falling, single point].
Take `CN1C(=O)C(CC(=O)N2CCN(C(c3ccccc3)c3ccccc3)CC2)N(C)C1=O` (stereo unspecified): the cell number change is 58.3%. In addition, the AC50 under setting [2] is 29.1 µM [rising, single point].
Consider `CCOC(=O)c1c(NC(=O)COC(=O)c2ccc(Cl)nc2)sc(C(=O)N(C)C)c1C`, for which the AC50 under setting [2] was 3.66 µM [rising, single point] and the AC50 under setting [1] is 6.51 µM [rising, partial curve, poor fit].
`Cc1c(C(=O)O)oc2c3c(ccc12)OCCO3`: the cell number change was -28.5%. For the same compound, the half-maximal activity concentration (AC50) under setting [2] is 0.326 µM [falling, full curve, poor fit]. Under setting [1], the concentration at half-maximal activity (AC50) was 1.46 µM [falling, full curve].
With `COc1ccc(CCn2c(N)c(C(=O)NCc3ccco3)c3nc4ccccc4nc32)cc1`, the cell number change was -61%. In addition, the AC50 under setting [2] was 20.6 µM [falling, partial curve]. For the same compound, under setting [1], the AC50 was 2.06 µM [rising, partial curve].
In the case of `O=c1[nH]cnc2c1sc1nc3c(c(-c4ccc(Cl)cc4)c12)CCC3`, the cell number change was determined as 6.28%. In addition, the half-maximal activity concentration (AC50) under setting [1] is 6.51 µM [rising, partial curve, poor fit].
In the case of `Nc1cc(F)ccc1N1CCCCCC1`, the cell number change was 5.19%. Further, the AC50 under setting [2] was 2.06 µM [rising, single point]. Besides, under setting [1], the AC50 is 0.651 µM [rising, partial curve].
For the compound `CCCC(=O)Nc1nn(C)c2nc3cc(C)ccc3cc12`, the cell number change is -9.14%. Under setting [1], the AC50 is 2.06 µM [rising, partial curve, poor fit].
On to `Oc1cccc(Nc2c3ccccc3nc3ccccc23)c1`, for which the cell number change was -36.9%. Besides, under setting [2], the concentration at half-maximal activity (AC50) was 29.1 µM [falling, single point]. For the same compound, under setting [1], the AC50 is 6.51 µM [rising, single point].
As for `Cc1cc(C)n(-c2nc3c(c(=O)[nH]c(=O)n3C)n2CCc2ccccc2)n1`, the cell number change was 7.5%. The AC50 under setting [1] was 1.64 µM [rising, full curve].
`Cc1ccccc1CCN(CC(=O)NCc1ccc(F)cc1)C(=O)c1csnn1`: the cell number change is -5.13%.
For `Cc1cc2nc3c(=O)[nH]c(=S)[nH]c3nc2cc1NC(=O)C(F)(F)F`, the cell number change was -99.2%. Besides, the AC50 under setting [2] is 29.1 µM [falling, single point]. For the same compound, the AC50 under setting [1] was 20.6 µM [falling, partial curve].
In the case of `O=C(Nc1ccc(F)cc1)Nc1ccccc1F`, the cell number change turned out to be 57%.
For `CCCC(=O)NC(c1ccc(Cl)cc1Cl)c1ccc2cccnc2c1O` (stereo unspecified), the cell number change is -43.9%. The AC50 under setting [2] was 11.6 µM [falling, partial curve, poor fit]. For the same compound, the AC50 under setting [1] is 29.1 µM [falling, single point].
For the compound `Cc1cnc(C(=O)Nc2cccc3cccnc23)cn1`, the cell number change was determined as 11.2%. Further, under setting [1], the AC50 was 2.91 µM [falling, partial curve, poor fit].
Regarding `COc1ccc(N2C(=O)/C(=C\c3ccco3)N=C2SCC(=O)N(C(C)C)C(C)C)cc1Cl`, the cell number change came out at 16.5%. In addition, the concentration at half-maximal activity (AC50) under setting [1] was 4.61 µM [rising, partial curve].
As to `COc1ccc(N=Nc2cc(C)c(O)c(CN3CCCCC3)c2)cc1`, the cell number change is -60%. Under setting [2], the AC50 is 14.6 µM [falling, single point]. Besides, under setting [1], the AC50 was 13 µM [falling, partial curve].
As for `O=C(CCN1C(=O)/C(=C/c2ccccc2)SC1=S)NNC(=O)c1ccncc1`, the cell number change is 32.5%. Besides, the half-maximal activity concentration (AC50) under setting [2] was 0.92 µM [rising, full curve].
For the compound `Cc1cc(NC(=O)CSc2nc3ccccc3c(=O)n2C2CCCC2)no1`, the cell number change amounted to 86.2%. Under setting [2], the AC50 is 7.31 µM [falling, single point].
As to `CC(C)(C)c1ccc(OCCSc2nc3ccccc3n2CC(=O)O)cc1`, the cell number change came out at 29.7%.
The same measure, in the same setting: for `COCCSc1nnc(NC(=O)CCS(=O)(=O)c2ccccc2)s1` the value was -21%.
For the compound `Cc1ccc(S(=O)(=O)N[C@@H](Cc2ccccc2)C(=O)N2CCC(C(=O)N[C@H](C(=O)O)C(C)O)CC2)cc1` (stereo partly specified), the cell number change is -5.56%. Further, the AC50 under setting [1] was 0.58 µM [falling, single point].
As for `C[n+]1cnc(-c2ccccc2)cc1-c1ccccc1`, the cell number change was determined as 14.6%. Further, the AC50 under setting [1] was 2.91 µM [rising, full curve, poor fit].
In the case of `CCCCN1C(=O)C(=O)NC[C@@H]1C(C)O` (stereo partly specified), the cell number change was -1.27%. Moreover, the AC50 under setting [1] is 16.4 µM [falling, single point].
